PubChem BioAssay AID1259254 – NCATS | 2017

Purpose: 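Finding genes that stop cells copying their DNA twice in one cycle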 (primary screen)
Cells: human HCT116 colorectal cancer cells
Reagents: single siRNA against human genes
Duration: 3 days
Measured: 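Imaged Hoechst DNA stain sorts each cell into a cycle phase by DNA amount; per plate, G2 fraction set to 0% for non-targeting and 100% for GMNN siRNA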
Direction: G2 robust z-score and G2 cells, % of GMNN control: higher = more G2 cells, more excess DNA replication; raw share of cells in G2: higher = larger share of cells with G2 DNA content
Hit rule: 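Active siRNAs have a G2 robust z of 5 or more median absolute deviations over the median, which in these data means about 38% or higher of GMNN control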
Shown is an unselected part of about 59,000 deposited reagents. In the full data, about 1,550 (2.6%) got an active call. 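G2 share is only a proxy for re-replication; each gene was hit by three separate siRNAs, and active genes were retested.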 Raw values are not corrected between plates. Reagents against one gene are numbered here. Not stated in the record: the amount of reagent.

Target gene | reagent no. | G2 robust z-score | G2 cells, % of GMNN control | raw share of cells in G2 (%) | outcome
MAG | 1 | -0.688 | -1.87 | 4.64 | inactive
MAG | 2 | -0.0871 | 2.35 | 3.97 | inactive
MAG | 3 | -0.0979 | 2.28 | 6.37 | inactive
INTS12 | 1 | -1.37 | -6.65 | 1.72 | inactive
INTS12 | 2 | 2.18 | 18.3 | 13.2 | inactive
INTS12 | 3 | 1.02 | 10.2 | 6.24 | inactive
ASTN2 | 1 | 1.31 | 12.2 | 7.72 | inactive
ASTN2 | 2 | -0.451 | -0.204 | 4.9 | inactive
ASTN2 | 3 | 1.94 | 16.6 | 11 | inactive
RNF2 | 1 | 1.18 | 11.2 | 7.93 | inactive
RNF2 | 2 | 0.613 | 7.28 | 8.26 | inactive
RNF2 | 3 | -0.801 | -2.67 | 2.14 | inactive
LOC727925 (retired record) | 1 | -1.1 | -4.8 | 1.78 | inactive
LOC727925 (retired record) | 2 | 0.0481 | 3.31 | 4.8 | inactive
LOC727925 (retired record) | 3 | -0.579 | -1.1 | 2.48 | inactive
THAP5 | 1 | 1.19 | 11.3 | 7.67 | inactive
THAP5 | 2 | -0.903 | -3.39 | 1.82 | inactive
THAP5 | 3 | -0.0531 | 2.59 | 3.58 | inactive
SHANK2 | 1 | -0.0609 | 2.54 | 4.12 | inactive
SHANK2 | 2 | -0.138 | 1.99 | 5.77 | inactive
SHANK2 | 3 | 0.273 | 4.89 | 6.15 | inactive
GCN1 | 1 | 0.437 | 6.04 | 8.32 | inactive
GCN1 | 2 | 2.84 | 22.9 | 11.3 | inactive
GCN1 | 3 | 0.165 | 4.13 | 8.11 | inactive
DOCK9 | 1 | -0.919 | -3.5 | 4.97 | inactive
DOCK9 | 2 | -1.21 | -5.56 | 2.29 | inactive
DOCK9 | 3 | 0.756 | 8.29 | 6.7 | inactive
CHTF18 | 1 | -0.177 | 1.72 | 5.36 | inactive
CHTF18 | 2 | 3.68 | 28.8 | 13 | inactive
CHTF18 | 3 | 1.86 | 16.1 | 8.33 | inactive

Ordered by “raw share of cells in G2 (%)” (highest first): 10 of the entries above
Target gene | reagent no. | G2 robust z-score | G2 cells, % of GMNN control | raw share of cells in G2 (%) | outcome
GCN1 | 2 | 2.84 | 22.9 | 11.3 | inactive
GCN1 | 1 | 0.437 | 6.04 | 8.32 | inactive
GCN1 | 3 | 0.165 | 4.13 | 8.11 | inactive
DOCK9 | 3 | 0.756 | 8.29 | 6.7 | inactive
SHANK2 | 3 | 0.273 | 4.89 | 6.15 | inactive
SHANK2 | 2 | -0.138 | 1.99 | 5.77 | inactive
CHTF18 | 1 | -0.177 | 1.72 | 5.36 | inactive
DOCK9 | 1 | -0.919 | -3.5 | 4.97 | inactive
SHANK2 | 1 | -0.0609 | 2.54 | 4.12 | inactive
DOCK9 | 2 | -1.21 | -5.56 | 2.29 | inactive

The list goes on.
Target gene | reagent no. | G2 robust z-score | G2 cells, % of GMNN control | raw share of cells in G2 (%) | outcome
MSR1 | 1 | -0.143 | 1.96 | 6.25 | inactive
MSR1 | 2 | -0.615 | -1.36 | 2.75 | inactive
MSR1 | 3 | 0.0388 | 3.24 | 6.61 | inactive
SREK1 | 1 | -0.86 | -3.09 | 1.99 | inactive
SREK1 | 2 | -0.441 | -0.132 | 3.78 | inactive
SREK1 | 3 | -0.629 | -1.46 | 2.46 | inactive
ANKHD1-EIF4EBP3 | 1 | -0.358 | 0.449 | 3.97 | inactive
ANKHD1-EIF4EBP3 | 2 | -0.924 | -3.53 | 2.11 | inactive
ANKHD1-EIF4EBP3 | 3 | -1.18 | -5.37 | 2.56 | inactive
WIPF3 | 1 | 0.773 | 8.41 | 5.59 | inactive
WIPF3 | 2 | -0.598 | -1.24 | 3.17 | inactive
WIPF3 | 3 | -0.417 | 0.0346 | 3.29 | inactive
DAP3 | 1 | -0.958 | -3.77 | 3.46 | inactive
DAP3 | 2 | 0.018 | 3.09 | 5.12 | inactive
DAP3 | 3 | 1.08 | 10.6 | 7.09 | inactive
OSGEPL1 | 1 | -0.466 | -0.315 | 5.46 | inactive
OSGEPL1 | 2 | -0.25 | 1.21 | 4.87 | inactive
OSGEPL1 | 3 | -0.371 | 0.357 | 4.39 | inactive
OR1L6 | 1 | 0.41 | 5.86 | 7.22 | inactive
OR1L6 | 2 | -0.536 | -0.801 | 3.52 | inactive
OR1L6 | 3 | 0.865 | 9.05 | 7.11 | inactive
LIAT1 | 1 | -0.318 | 0.727 | 4.08 | inactive
LIAT1 | 2 | -0.169 | 1.78 | 4.22 | inactive
LIAT1 | 3 | -0.0838 | 2.38 | 5.78 | inactive
UNG | 1 | 0.18 | 4.23 | 7.39 | inactive
UNG | 2 | 2.67 | 21.7 | 11.6 | inactive
UNG | 3 | -1.48 | -7.42 | 1.5 | inactive
ASB10 | 1 | 0.27 | 4.86 | 7.1 | inactive
ASB10 | 2 | -0.15 | 1.91 | 5.89 | inactive
ASB10 | 3 | -0.945 | -3.68 | 2.5 | inactive
WDR55 | 1 | -0.661 | -1.69 | 3 | inactive
WDR55 | 2 | 0.853 | 8.97 | 8.05 | inactive
WDR55 | 3 | -0.778 | -2.51 | 2.36 | inactive
MFSD8 | 1 | -0.615 | -1.36 | 4.2 | inactive
MFSD8 | 2 | -0.348 | 0.522 | 4.92 | inactive
MFSD8 | 3 | -0.149 | 1.92 | 6.87 | inactive
SPDYE3 | 1 | 0.234 | 4.61 | 5.4 | inactive
SPDYE3 | 2 | -0.654 | -1.63 | 2.8 | inactive
SPDYE3 | 3 | 0.211 | 4.45 | 4.63 | inactive
